From publication PMC7026659
Weaker means in comparison with the reference protein, sequence or condition of that experiment. For part of these data: Construct, isoform or probe ends are uncertain for at least one entry. For part of these data: Where cells or extracts were used, other partners may take part.

Sequences of proteins named here, by UniProt entry; tags and fusion partners are left off. Residues count along the entry.
UniProt Q03468, 444-509 R464A: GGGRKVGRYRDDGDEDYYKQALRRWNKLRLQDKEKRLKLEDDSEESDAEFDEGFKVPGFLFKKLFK
UniProt P43351, whole entry K144A: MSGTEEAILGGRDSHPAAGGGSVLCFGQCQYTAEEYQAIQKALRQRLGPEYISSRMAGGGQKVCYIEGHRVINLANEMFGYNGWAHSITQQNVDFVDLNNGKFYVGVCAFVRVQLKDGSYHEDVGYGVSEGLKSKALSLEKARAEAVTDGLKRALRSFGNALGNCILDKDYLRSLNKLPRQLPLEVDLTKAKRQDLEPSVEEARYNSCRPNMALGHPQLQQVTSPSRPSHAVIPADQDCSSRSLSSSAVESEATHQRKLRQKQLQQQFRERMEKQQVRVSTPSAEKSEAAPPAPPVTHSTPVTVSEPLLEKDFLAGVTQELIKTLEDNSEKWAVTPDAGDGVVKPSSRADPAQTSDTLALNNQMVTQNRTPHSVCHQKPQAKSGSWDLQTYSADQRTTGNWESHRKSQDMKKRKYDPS

Tests used:
[1] = target: GST-CSB-ADC R464A (Homo sapiens) (UniProt Q03468); assay: EMSA; conditions: reduced versus WT; EMSA (described for RAD52): 25 mM Tris-HCl pH 7.5, 1 mM MgCl2, 1 mM DTT, 50 ug/ml BSA, 50 mM NaCl, 15 min, 37 C, 6% PAGE-TBE at 4 C; recombinant protein; residues 444-509; protein details: GST; label: 5'-maleimide-IR800 on oligo 1 (DNA); DNA:RNA hybrid
[2] = target: RAD52 K144A (Homo sapiens) (UniProt P43351); assay: EMSA; conditions: 1 mM Mg2+, reduced versus WT; EMSA (described for RAD52): 25 mM Tris-HCl pH 7.5, 1 mM MgCl2, 1 mM DTT, 50 ug/ml BSA, 50 mM NaCl, 15 min, 37 C, 6% PAGE-TBE at 4 C; recombinant protein; protein details: C-terminal 6xHis; label: 5'-maleimide-IR800 on oligo 1 (DNA); DNA:RNA hybrid
GFP-CSB-ADC R464A = GFP-CSB-ADC R464A (UniProt Q03468); assay: pull-down; conditions: reduced versus AD-C; pull-down: kit protein-RNA binding buffer, 15% glycerol, 30-60 min, 4 C; protein in a lysate after overexpression; residues 444-509; protein details: GFP (pEGFP-C1); DNA:RNA hybrid

| Sequence | binding result [1] | binding result [2] | binding result (GFP-CSB-ADC R464A) |
| --- | --- | --- | --- |
| ATCATCACCATAACGTCGATGTATCAACTTCGATTAGTCACACCAATTAA / UUAAUUGGUGUGACUAAUCGAAGUUGAUACAUCGACGUUAUGGUGAUGAU [RNA-DNA hybrid (oligo 1/oligo 2)] | binds more weakly | binds more weakly | – |
| ATCATCACCATAACGTCGATGTATCAACTTCGATTAGTCACACCAATTAA / UUAAUUGGUGUGACUAAUCGAAGUUGAUACAUCGACGUUAUGGUGAUGAU [biotin-labeled DNA:RNA hybrid (pull-down)] | – | – | binds more weakly |
